Patent publication US8937072B2, “Substituted cyanoaniline compounds, preparation and use thereof” (Sinochem Corporation, priority 2011, dated 2015)
Like-named read-outs stand apart in the source and are kept apart here. Some entries share one result that the patent states for a list of compounds.

Columns and labels:
rice blast = assay type: cell-based; conditions: in vitro
cucumber downy mildew = assay: Protectant activity in vivo (whole plant) against cucumber downy mildew
Experimental: The method is as followed: The whole plant is used in this test. The compound is dissolved in a proper solvent to get mother solution. The proper solvent is selected from acetone, methanol, DMF and so on according to their dissolving capability to the sample. The volume rate of solvent and testing solution (v/v) is equal to or less than 5%. The mother solution is diluted with water containing 0.1% tween-80 to get the testing solution whose concentration is designed. The testing solution is sprayed to the host plant by a special plant sprayer. The plant is inoculated with fungus after 24 hours. According to the infecting characteristic of fungus, the plant is stored in a humidity chamber and then transferred into greenhouse after infection is finished. And the other plants are placed in greenhouse directly. The activity of compound is obtained by eyeballing after 7 days in common.

cucumber gray mold = assay: Activity in vitro (96-well, High Through Put): inhibition rate against cucumber gray mold; assay type: cell-based
Experimental: The method is as followed: High Through Put is used in the test. The compound is dissolved in a proper solvent to become a testing solution whose concentration is designed. The solvent is selected from acetone, methanol, DMF and so on according to their dissolving capability to the sample. In a no animalcule condition, the testing solution and pathogens suspension are added into the cells of 96 cells culture board, which then should be placed in the constant temperature box. 24 hours later, pathogen germination or growth can be investigated by eyeballing, and the activity in vitro of the compound is evaluated based on germination or growth of control treatment.

| Structure (SMILES) | inhibition rate against rice blast (rice blast; dose 0.9 mg/L) [%] | inhibition rate against rice blast (rice blast; dose 2.8 mg/L) [%] | inhibition rate against rice blast (rice blast; dose 8.3 mg/L) [%] | inhibition rate against rice blast (rice blast; dose 25 mg/L) [%] | protectant activity against cucumber downy mildew in vivo (cucumber downy mildew; dose 50 mg/L) | protectant activity against cucumber downy mildew in vivo (cucumber downy mildew; dose 100 mg/L) | inhibition rate against cucumber gray mold (cucumber gray mold; dose 25 mg/L) [%] | inhibition rate against rice blast (rice blast; dose 0.3 mg/L) [%] | protectant activity against cucumber downy mildew in vivo (cucumber downy mildew; dose 12.5 mg/L) | protectant activity against cucumber downy mildew in vivo (cucumber downy mildew; dose 400 mg/L) | inhibition rate against cucumber gray mold (cucumber gray mold; dose 0.3 mg/L) [%] | inhibition rate against cucumber gray mold (cucumber gray mold; dose 0.9 mg/L) [%] | inhibition rate against cucumber gray mold (cucumber gray mold; dose 2.8 mg/L) [%] | inhibition rate against cucumber gray mold (cucumber gray mold; dose 8.3 mg/L) [%] | protectant activity against cucumber downy mildew in vivo (cucumber downy mildew; dose 6.25 mg/L) | protectant activity against cucumber downy mildew in vivo (cucumber downy mildew; dose 25 mg/L) |
| --- | --- | --- | --- | --- | --- | --- | --- | --- | --- | --- | --- | --- | --- | --- | --- | --- |
| Cc1c(Cl)c([N+](=O)[O-])cc([N+](=O)[O-])c1Nc1c(Cl)c(Cl)c(C#N)c(C#N)c1Cl [Compound A-61] | 100 | 100 | 100 | 100 | more than 95% | more than 95% | 80 |  |  |  |  |  |  |  |  |  |
| N#Cc1c(Cl)c(Cl)c(Nc2cc(Cl)cnc2Cl)c(C#N)c1Cl [Compound B-133] | 100 | 100 | 100 | 100 |  |  | 100 | 100 | no less than 90% | more than 90% | 100 | 100 | 100 | 100 |  |  |
| Cc1cc([N+](=O)[O-])cc(Cl)c1Nc1c(Cl)c(Cl)c(C#N)c(Cl)c1C#N [Compound B-58] | 100 | 100 | 100 | 100 |  |  | 100 | 100 |  |  |  | 100 | 100 | 100 | no less than 85% | no less than 90% |
| N#Cc1c(Cl)c(Cl)c(Nc2nc(Cl)c(Cl)cc2Cl)c(C#N)c1Cl [Compound B-128] | 100 | 100 | 100 | 100 |  |  | 100 | 100 |  |  |  |  | 80 | 100 |  | no less than 90% |
| N#Cc1c(F)c(F)c(C#N)c(Nc2ccc(C(F)(F)F)cc2Cl)c1F [Compound C-82] | 80 | 100 | 100 | 100 |  | more than 95% | 80 |  |  |  |  |  |  |  |  |  |
| N#Cc1c(F)c(F)c(Nc2c(Cl)cc([N+](=O)[O-])cc2Cl)c(C#N)c1F [Compound B-109] | 100 | 100 | 100 | 100 |  |  | 100 |  |  |  |  |  | 100 | 100 |  | no less than 90% |
| N#Cc1c(F)c(F)c(Nc2c(Br)cc([N+](=O)[O-])cc2Br)c(C#N)c1F [Compound B-115] | 100 | 100 | 100 |  | more than 80% | more than 95% | 100 | 100 |  |  |  |  | 100 | 100 |  | no less than 80% |
| N#Cc1c(Cl)c(Cl)c(Nc2ccc([N+](=O)[O-])cc2F)c(Cl)c1C#N [Compound A-14] | 100 | 100 | 100 | 100 |  |  | 100 | 100 | no less than 90% |  | 100 | 100 | 100 | 100 |  |  |
| N#Cc1ccc(Nc2c(Cl)c(Cl)c(C#N)c(C#N)c2Cl)cc1C(F)(F)F [Compound A-27] |  | 80 | 100 | 100 | more than 80% | more than 95% |  |  |  |  |  |  |  |  |  |  |
| COC(=O)c1ccc(Nc2c(Cl)c(C#N)c(Cl)c(Cl)c2C#N)cc1 [Compound C-8] | 100 | 100 | 100 | 100 |  |  |  |  |  | more than 90% |  |  |  |  |  |  |
| CNC(=O)c1cc(C#N)cc(C)c1Nc1c(Cl)c(Cl)c(C#N)c(Cl)c1C#N [Compound B-62a] |  |  |  | 80 |  |  |  |  |  | no less than 80% |  |  |  |  |  |  |
| N#Cc1c(F)c(F)c(C#N)c(Nc2ccc([N+](=O)[O-])cc2F)c1F [Compound C-79] |  | 100 | 100 | 100 |  | no less than 80% |  |  |  |  |  |  |  |  |  |  |
| COC(=O)c1ccc(Nc2c(Cl)c(Cl)c(C#N)c(C#N)c2Cl)cc1 [Compound A-11] |  |  |  | 80 |  | more than 95% |  |  |  |  |  |  |  |  |  |  |
| N#Cc1c(Cl)c(Cl)c(Nc2c(F)cc([N+](=O)[O-])cc2Cl)c(C#N)c1Cl [Compound B-53] | 100 | 100 | 100 | 100 |  |  | 100 | 100 |  |  | 100 | 100 | 100 | 100 |  | no less than 90% |
| N#Cc1c(Cl)c(Cl)c(C#N)c(Nc2c(Cl)cncc2Cl)c1Cl [Compound C-124] | 100 | 100 | 100 | 100 |  |  |  | 100 | no less than 90% |  |  |  |  |  |  | no less than 90% |
| N#Cc1c(Cl)c(Cl)c(Nc2cc([N+](=O)[O-])ccc2Cl)c(Cl)c1C#N [Compound A-16] | 100 | 100 | 100 | 100 | more than 80% | more than 95% |  | 100 |  |  |  |  |  |  |  |  |
| Cc1c(Cl)c([N+](=O)[O-])cc([N+](=O)[O-])c1Nc1c(Cl)c(C#N)c(Cl)c(Cl)c1C#N [Compound C-60] | 80 | 100 | 100 | 100 |  | more than 95% |  |  |  | more than 90% |  |  |  |  |  |  |
| N#Cc1c(Cl)c(Cl)c(Nc2ccc(Br)cn2)c(Cl)c1C#N [Compound A-79] |  |  | 100 | 100 |  |  |  |  |  |  |  |  |  |  |  | no less than 90% |
| N#Cc1c(F)c(F)c(C#N)c(Nc2ccc([N+](=O)[O-])cc2)c1F [Compound C-70] |  | 80 | 100 | 100 |  | no less than 80% |  |  |  |  |  |  |  |  |  |  |
| N#Cc1c(Cl)c(Cl)c(Nc2ccnc(Cl)c2)c(C#N)c1Cl [Compound B-137] |  | 80 | 100 | 100 |  | no less than 80% |  |  |  |  |  |  |  |  |  |  |
| COc1c(Cl)c(C#N)c(Cl)c(Nc2ccc(C(F)(F)F)cc2Cl)c1C#N [Compound C-62] | 80 | 100 | 100 | 100 |  |  |  |  |  | no less than 80% |  |  |  |  |  |  |
| COc1cc([N+](=O)[O-])ccc1Nc1c(F)c(C#N)c(F)c(F)c1C#N [Compound C-88] |  | 80 | 100 | 100 |  | more than 95% | 80 |  |  | more than 90% |  |  |  |  |  |  |
